# Data taken from US20080118591A1, “Bactericidal Formulations” (priority 2004, published 2008).
# At least one compound was matched to its structure with a doubt left. Some entries share one result that the patent states for a list of compounds.
# Tested on: gram-negative bacteria
# Assay: Rapid bactericidal effect of perfume ingredients (example 1, Mueller-Hinton broth, most probable number method)
# Assay type: cell-based
# Conditions: for rapid (30 s) bactericidal activity on gram-negative bacteria (class): 30 s contact time, 0.1% or 0.2% (w/v) in Mueller-Hinton broth
# Experimental: A sufficiently rapid bactericidal activity of a perfume ingredient against gram-negative bacteria according to the invention is determined as follows. The perfume ingredient must have a reduction factor of bacterial viability of at least 20-fold when it is tested in a concentration of 0.2% in Mueller Hinton Broth with a contact time of 30 seconds as described below. The perfume ingredient is dissolved in dimethylsulfoxide (DMSO) in a concentration of 4% (w/v). An aliquot (10 μl) of the solution is added to individual wells of microtiter plates.
# 200 μl of Mueller-Hinton broth containing a bacterial inoculum of 2.5×10^6 cfu (colony forming units) is added. After 30 s contact time, 20 μl of the test solution is removed and added to 180 μl of a neutralising solution (containing 3 g lecithin, 30 g Tween® 80, 5 g sodium thiosulfate, 1 g histidine, 30 g saponin, 8.5 g sodium chloride, 1 g tryptone and 1000 ml water). After 1 min incubation, the sample is serially diluted 1:1 in Micotiter-plates containing 100 μl Mueller-Hinton Broth per well, and then incubated for 24 h at 37° C. The maximal dilution showing bacterial growth is recorded to determine the number of surviving bacteria (so-called most probable number method, which is a well-known microbiological method), and results are compared to control samples without added perfumery chemicals. Reduction in bacterial viability is thus calculated by dividing numbers of bacteria in control samples by the number surviving in the treated samples. […].
# Test organisms Escherichia coli (ATCC 10536), Salmonella typhimurium (ATCC 13311) and Pseudomonas aeruginosa (ATCC 15442) are used. For Pseudomonas aeruginosa the test solution contains additionally 0.1% EDTA.
# A large number of commercially-available materials including a collection of 900 perfumery chemicals is tested. The materials are dissolved in dimethylsulfoxide (DMSO) in a concentration of 4% (w/v). An aliquot (5 μl or 10 μl) of each solution is added to individual wells of microtiter plates. 200 μl of Mueller-Hinton broth containing a bacterial inoculum of 2.5×10^6 cfu (colony forming units) is added. After 30 s and 60 s contact time, 20 μl of the test solution is removed and added to 180 μl of a neutralising solution (containing 3 g lecithin, 30 g Tween® 80, 5 g sodium thiosulfate, 1 g histidine, 30 g saponin, 8.5 g sodium chloride, 1 g tryptone and 1000 ml water). After 1 min incubation, the samples are serially diluted 1:1 in Micotiter-plates containing 100 μl Mueller-Hinton Broth per well, and then incubated for 24 h at 37° C. The maximal dilution showing bacterial growth is recorded to determine the number of surviving bacteria (so-called most probable number method, which is a well-known microbiological method), and results are compared to control samples without added perfumery chemicals. Reduction in bacterial viability is thus calculated by dividing numbers of bacteria in control samples by the number surviving in the treated samples.
SMILES,rapid (30 s) bactericidal activity on gram-negative bacteria (class),antibacterial effect in formulations according to the present invention (in words)
Cc1ccc(C(C)C)cc1O [Carvacrol],very high (very high activity indicating an at least 100 fold reduction in bacterial viability at a concentration of 0.1% (w/v) perfume ingredient),–
CC(C)c1ccc(CO)cc1 [cuminic alcohol],very high (very high activity indicating an at least 100 fold reduction in bacterial viability at a concentration of 0.1% (w/v) perfume ingredient),–
C=CC(C)(CCC=C(C)C)OC(C)=O (centres unmarked) [linalyl-acetate],without activity,do not provide a sufficient antibacterial effect
CCCc1ccc(O)c(OC)c1 [2-methoxy-4-propyl-phenol],very high (very high activity indicating an at least 100 fold reduction in bacterial viability at a concentration of 0.1% (w/v) perfume ingredient),–
